Experimental data taken from US20260157369A1, “COMPOSITIONS CONTAINING PEROXYACID TO INHIBIT GROWTH OF SPORE-PRODUCING ORGANISMS IN ANIMAL FEED AND RELATED METHODS” (KEMIN INDUSTRIES, INC., priority 2024, published 2026).
Some entries share one result that the patent states for a list of compounds. At least one compound was matched to its structure with a doubt left.

System: mold in naturally contaminated layer feed
Assay: CO2 production test in naturally contaminated layer feed
Details: 2500 g/T, at least 75 days of storage at 25° C.

Compound: CCC(=O)OO [PPA, perpropionic acid]
- relative CO2: below 10%
